The text below walks through data of patent US10344077.

The chains behind the UniProt entries cited, without tags or fusion partners. Residues count along the entry.
UniProt P11387, residues 2-765: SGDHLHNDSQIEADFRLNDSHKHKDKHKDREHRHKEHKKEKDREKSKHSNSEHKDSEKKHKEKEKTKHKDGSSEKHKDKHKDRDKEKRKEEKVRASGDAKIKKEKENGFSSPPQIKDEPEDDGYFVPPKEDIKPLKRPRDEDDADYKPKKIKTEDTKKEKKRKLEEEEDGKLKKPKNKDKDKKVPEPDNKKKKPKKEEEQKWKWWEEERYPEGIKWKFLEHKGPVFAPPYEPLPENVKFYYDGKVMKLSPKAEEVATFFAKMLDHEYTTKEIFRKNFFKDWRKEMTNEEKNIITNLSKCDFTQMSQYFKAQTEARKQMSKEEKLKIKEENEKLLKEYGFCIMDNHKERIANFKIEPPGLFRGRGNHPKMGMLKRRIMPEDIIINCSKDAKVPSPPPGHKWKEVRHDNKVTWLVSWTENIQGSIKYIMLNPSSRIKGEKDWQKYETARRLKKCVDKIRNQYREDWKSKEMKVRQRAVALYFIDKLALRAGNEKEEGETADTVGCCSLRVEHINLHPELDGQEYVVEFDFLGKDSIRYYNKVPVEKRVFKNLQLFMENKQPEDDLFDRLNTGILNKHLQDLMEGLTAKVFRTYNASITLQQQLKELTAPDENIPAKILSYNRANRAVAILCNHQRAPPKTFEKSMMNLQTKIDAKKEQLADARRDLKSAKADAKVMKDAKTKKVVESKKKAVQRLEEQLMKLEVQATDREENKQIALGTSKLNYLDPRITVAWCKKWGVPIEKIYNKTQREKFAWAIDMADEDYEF

Common to all, as to test: AtheNA
For assay [1], the target named is T1, Centromere B (UniProt P07199).
T1 sequence (looked up): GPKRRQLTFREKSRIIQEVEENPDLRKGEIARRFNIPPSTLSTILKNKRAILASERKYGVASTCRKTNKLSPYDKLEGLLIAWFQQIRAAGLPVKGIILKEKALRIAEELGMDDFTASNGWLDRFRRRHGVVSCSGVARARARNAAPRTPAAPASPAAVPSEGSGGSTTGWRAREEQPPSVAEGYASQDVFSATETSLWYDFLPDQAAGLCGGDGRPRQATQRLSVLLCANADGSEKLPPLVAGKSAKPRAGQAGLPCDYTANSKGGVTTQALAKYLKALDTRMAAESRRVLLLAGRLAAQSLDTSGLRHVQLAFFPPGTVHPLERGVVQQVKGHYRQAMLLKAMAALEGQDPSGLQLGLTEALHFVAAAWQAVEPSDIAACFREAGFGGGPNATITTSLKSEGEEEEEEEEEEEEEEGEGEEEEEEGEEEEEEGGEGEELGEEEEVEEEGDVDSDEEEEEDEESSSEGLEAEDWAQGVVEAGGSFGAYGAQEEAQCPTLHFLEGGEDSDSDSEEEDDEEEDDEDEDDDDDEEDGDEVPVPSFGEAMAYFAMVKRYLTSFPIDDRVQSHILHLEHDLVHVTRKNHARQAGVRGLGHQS

The target in assay [2] is T2, Jo-1 (UniProt P12081).
T2 sequence (looked up): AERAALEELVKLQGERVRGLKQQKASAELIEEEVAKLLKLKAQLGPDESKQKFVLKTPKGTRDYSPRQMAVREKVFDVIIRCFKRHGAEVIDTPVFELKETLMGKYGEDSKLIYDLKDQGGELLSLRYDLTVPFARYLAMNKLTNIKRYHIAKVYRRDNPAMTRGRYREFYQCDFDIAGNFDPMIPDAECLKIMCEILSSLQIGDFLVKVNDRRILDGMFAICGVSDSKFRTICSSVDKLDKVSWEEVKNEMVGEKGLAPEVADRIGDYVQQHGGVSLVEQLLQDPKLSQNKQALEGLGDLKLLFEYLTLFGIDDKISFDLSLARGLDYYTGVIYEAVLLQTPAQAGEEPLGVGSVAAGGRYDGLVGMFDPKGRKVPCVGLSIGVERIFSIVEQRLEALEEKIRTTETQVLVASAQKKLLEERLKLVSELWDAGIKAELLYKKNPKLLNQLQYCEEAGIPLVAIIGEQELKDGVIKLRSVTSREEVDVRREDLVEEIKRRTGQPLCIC

Assay [3] has as its target Scl-70 (UniProt P11387).
Substrate in assay [4]: T3, SSB (UniProt P05455)
T3 sequence (looked up): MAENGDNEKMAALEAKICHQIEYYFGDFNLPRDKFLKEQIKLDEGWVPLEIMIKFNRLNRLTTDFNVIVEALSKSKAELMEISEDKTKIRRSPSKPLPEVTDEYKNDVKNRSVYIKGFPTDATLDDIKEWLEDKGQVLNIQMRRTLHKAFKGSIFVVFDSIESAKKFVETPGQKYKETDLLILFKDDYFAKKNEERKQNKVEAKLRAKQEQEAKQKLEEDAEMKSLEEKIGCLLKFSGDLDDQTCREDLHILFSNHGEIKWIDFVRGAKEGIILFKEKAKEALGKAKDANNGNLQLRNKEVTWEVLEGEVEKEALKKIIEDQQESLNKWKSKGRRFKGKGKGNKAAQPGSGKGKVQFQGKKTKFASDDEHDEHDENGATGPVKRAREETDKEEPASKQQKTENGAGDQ

Results are given in words; binding and its absence hold for the method and conditions named.

B1: CH557 (antibody, V domains shown)
VH: QVRLAQYGGGVKRLGATMTLSCVASGYTFNDYYIHWVRQAPGQGFELLGYIDPANGRPDYAGALRERLSFYRDKSMETLYMDLRSLRYDDTAMYYCVRNVGTAGSLLHYDHWGSGSPVIVSS
VL: EIVLTQSPATLSASPGERVTLTCRASRSVRNNVAWYQHKGGQSPRLLIYDASTRAAGVPARFSGSASGTEFTLAISNLESEDFTVYFCLQYNNWWTFGQGTRVDIK
Consider B1, for which, in assay [1], the binding result is listed as “no binding (tested: 6.25 ug/ml to 50 ug/ml)”.

B2: DH542 (antibody, V domains shown)
VH: QVQLVQSGAQMKNPGASVKVSCAPSGYTFTDFYIHWLRQAPGQGLQWMGWMNPQTGRTNTARNFQGRVTMTRDTSIGTAYMELRSLTSDDTAIYYCTTGGWISLYYDSSYYPNFDHWGQGTLLTVSS
VL: TSLLTQPASVSGSPGQSITISCTGTKYDVGSHDLVSWYQQYPGKVPKYMIYEVNKRPSGVSNRFSGSKSGNTASLTISGLRAEDEADYYCCSFGGSATVVCGGGTKVTVL
As for B2, the binding result in assay [1], in assay [2], in assay [3] and in assay [4] was “no binding (tested: Readings <100 are considered negative)” in each case.
